According to PMC11977196:
Results are given in words; binding and its absence hold for the method and conditions named.

Biological target: Ca2+-ATPase 1 from Listeria monocytogenes (LMCA1), wild type (Listeria monocytogenes) (UniProt Q8Y8Q5)
Experiment: SEC; Superdex 200 10/300 in 50 mM Tris-HCl, 150 mM KCl, pH 7.6; LMCA1 reconstituted in saposin A nanodiscs with brain extract lipids; monomeric fraction separated from aggregates and empty discs; both purified

B1: Ca2+-ATPase 1 from Listeria monocytogenes (LMCA1), wild type (enzyme, UniProt Q8Y8Q5 2-880)
chain: EIYRKSAAETFTQLEATEKGLTTSEVTKRQEKYGFNELKNKKKDPLWKLFLETFKDPMVIVLVIAALVQLVLGEVVESLIIFLVLIVNSIISVVQTRKAESSLDALREMSAPVAKVIRDGSKQSIHARELVPGDVVILDAGDFVPADGRLFESGSLKIDEGMLTGESEAVEKYIDTIPDEVGLGDRVNMVFSGSLVVYGRGMFVVTGTASETEIGKIAGLLETAEAKQTPLQRKLESFSKKLGLGILALCVLIFAVEAGRVLLGDNSADMATAILNAFMFAVAVAVAAIPEALSSIVTIVLAVGTNKMAKQHAIIRKLPAVETLGSTSVICTDKTGTLTQNKMTVVDYYLPDGTKENFPESPENWSEGERRLIHIAVLCNDSNINSEGKELGDPTEVALIAFSNKNNQDYNEIREKFIREGEIPFDSDRKLMSTLHTFNENKAMLTKGGPDVMFARCSYVFLDGEEKPMTEEILAKLKETNEEFSNQALRVLAYGYKRMPADTTELKLEDEQDIVLVGLTAMIDPPREAVYASIEESKKAGIRTVMITGDHKTTAQAIGRDIGLMDADDIALTGQELDAMPEEELDKKLEHIAVYARVSPENKIRIVKAWQKKGKITAMTGDGVNDAPALKQADIGVAMGSGTDVAKDSAAMILTDDNFVSIVDAVGVGRTVFDNIKKSIAYLFAGNLGAIIAILFALVLDWINPFTALQLLFINLVNDSLPAIALGMEKAEPDVMKRKPRDINEGIFAGGTMRAVISRGVLIGIAVIISQYIGMQISPEMSVAMAFTTLILARTLQTFAARSNVQTAFGAGFFSNKYVIGAVLLCFVLYGITVLPGAREIFSIPASFGLHEWSIAAGLALAAVVMMEIIKVVQNKFFK
B1 was tested, and the binding was “no binding”.
